Consider one molecule from publication PMC6882821, “Production of recombinant soluble dimeric C-type lectin-like receptors of rat natural killer cells” (Scientific Reports, 2019).

Results are given in words; binding and its absence hold for the method and conditions named. Where a sequence is shown, tags or fusion partners need not be part of it.

For the experiment, the target named is NKR-P1B^SD V78-S223, histidine-tagged, expressed from pHLsec (rat (SD strain)) (UniProt A4KWA1). In words: non-reducing SDS-PAGE with Western blot; small-scale expression test; 10 ul of culture supernatant 3 days after transfection, 15% SDS-PAGE under non-reducing conditions, detected by PentaHis mAb; shows covalent dimers. On the technique in general: Immunoblotting shows a protein as a band on a membrane.

B1: NKR-P1B^SD V78-S223, histidine-tagged, expressed from pHLsec (domain or fragment, UniProt A4KWA1 78-223)
chain: ETGVQENRTKTTDSPAKLKCPKDWHSHQDKCFHVSQTSITWKGSLADCGGKGATLLLVQDQEELRFLRNLTKRISSSFWIGLSYTLSDEKWKWINGSTLNSDALNITGDTEKDSCASVSQDKVLSESCDSDNIWICQKELKRESTCNDS
As for B1, the binding result was “no binding”.
